Experimental data published in the supplement of paper PMC10849652.
The other results are listed elsewhere or left out.

By UniProt entry, the sequences of proteins in these tests, tags left out. Where a name states a change or a piece, a line headed by the entry shows the natural chain unless it says otherwise.
UniProt Q8WXB1: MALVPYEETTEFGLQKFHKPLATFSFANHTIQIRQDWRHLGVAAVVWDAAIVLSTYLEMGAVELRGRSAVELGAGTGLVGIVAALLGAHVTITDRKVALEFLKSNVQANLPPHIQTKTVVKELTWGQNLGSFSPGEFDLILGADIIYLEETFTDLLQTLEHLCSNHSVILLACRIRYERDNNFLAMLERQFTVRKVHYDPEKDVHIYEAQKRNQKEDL
UniProt Q86V88: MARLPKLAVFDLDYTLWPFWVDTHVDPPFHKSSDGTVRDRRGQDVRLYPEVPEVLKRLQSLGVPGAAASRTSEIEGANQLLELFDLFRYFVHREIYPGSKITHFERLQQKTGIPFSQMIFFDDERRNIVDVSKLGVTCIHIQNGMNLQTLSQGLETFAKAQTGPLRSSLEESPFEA
UniProt Q00266: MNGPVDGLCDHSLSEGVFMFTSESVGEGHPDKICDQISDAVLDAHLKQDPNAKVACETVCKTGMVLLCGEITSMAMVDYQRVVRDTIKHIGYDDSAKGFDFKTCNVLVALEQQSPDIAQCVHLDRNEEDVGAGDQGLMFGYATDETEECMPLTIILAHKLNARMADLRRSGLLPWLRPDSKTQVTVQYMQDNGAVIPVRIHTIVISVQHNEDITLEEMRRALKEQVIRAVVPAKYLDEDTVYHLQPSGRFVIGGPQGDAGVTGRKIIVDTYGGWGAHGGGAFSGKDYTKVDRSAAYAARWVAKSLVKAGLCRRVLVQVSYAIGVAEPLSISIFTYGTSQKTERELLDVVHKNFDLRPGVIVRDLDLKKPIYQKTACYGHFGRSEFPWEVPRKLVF
UniProt P33991: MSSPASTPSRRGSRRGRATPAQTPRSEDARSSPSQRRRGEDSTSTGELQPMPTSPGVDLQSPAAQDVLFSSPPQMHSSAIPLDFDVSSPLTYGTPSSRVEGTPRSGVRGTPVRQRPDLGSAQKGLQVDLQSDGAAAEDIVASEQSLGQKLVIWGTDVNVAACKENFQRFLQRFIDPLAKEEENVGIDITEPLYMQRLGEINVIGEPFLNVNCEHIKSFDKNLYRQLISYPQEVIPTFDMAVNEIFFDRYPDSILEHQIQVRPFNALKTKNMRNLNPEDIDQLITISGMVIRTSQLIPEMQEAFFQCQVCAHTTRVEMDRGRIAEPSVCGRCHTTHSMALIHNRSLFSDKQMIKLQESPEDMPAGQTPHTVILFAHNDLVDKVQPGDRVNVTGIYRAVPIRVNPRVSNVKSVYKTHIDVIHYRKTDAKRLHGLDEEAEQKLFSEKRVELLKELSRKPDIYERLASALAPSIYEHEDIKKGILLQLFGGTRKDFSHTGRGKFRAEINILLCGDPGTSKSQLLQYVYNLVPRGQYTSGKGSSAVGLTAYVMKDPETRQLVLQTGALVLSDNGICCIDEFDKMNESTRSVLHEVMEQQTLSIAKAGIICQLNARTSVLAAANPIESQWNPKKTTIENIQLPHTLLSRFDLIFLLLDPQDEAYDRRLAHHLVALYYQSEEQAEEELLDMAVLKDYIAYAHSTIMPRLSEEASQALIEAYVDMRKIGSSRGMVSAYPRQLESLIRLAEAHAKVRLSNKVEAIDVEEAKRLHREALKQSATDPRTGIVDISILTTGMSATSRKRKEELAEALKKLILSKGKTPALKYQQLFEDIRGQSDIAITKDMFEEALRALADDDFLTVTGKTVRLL
UniProt P55081: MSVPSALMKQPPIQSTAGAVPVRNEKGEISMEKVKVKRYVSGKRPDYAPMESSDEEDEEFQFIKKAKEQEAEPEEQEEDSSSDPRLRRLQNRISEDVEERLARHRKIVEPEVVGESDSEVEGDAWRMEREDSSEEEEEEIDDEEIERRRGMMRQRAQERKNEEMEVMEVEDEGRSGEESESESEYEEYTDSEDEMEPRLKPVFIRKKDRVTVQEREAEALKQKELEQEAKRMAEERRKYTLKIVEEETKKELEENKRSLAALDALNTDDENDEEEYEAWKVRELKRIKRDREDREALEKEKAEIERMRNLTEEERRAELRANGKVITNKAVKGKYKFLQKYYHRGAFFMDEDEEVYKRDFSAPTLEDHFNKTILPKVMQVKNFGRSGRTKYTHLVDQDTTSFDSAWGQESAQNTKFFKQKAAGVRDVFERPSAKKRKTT
UniProt P23368: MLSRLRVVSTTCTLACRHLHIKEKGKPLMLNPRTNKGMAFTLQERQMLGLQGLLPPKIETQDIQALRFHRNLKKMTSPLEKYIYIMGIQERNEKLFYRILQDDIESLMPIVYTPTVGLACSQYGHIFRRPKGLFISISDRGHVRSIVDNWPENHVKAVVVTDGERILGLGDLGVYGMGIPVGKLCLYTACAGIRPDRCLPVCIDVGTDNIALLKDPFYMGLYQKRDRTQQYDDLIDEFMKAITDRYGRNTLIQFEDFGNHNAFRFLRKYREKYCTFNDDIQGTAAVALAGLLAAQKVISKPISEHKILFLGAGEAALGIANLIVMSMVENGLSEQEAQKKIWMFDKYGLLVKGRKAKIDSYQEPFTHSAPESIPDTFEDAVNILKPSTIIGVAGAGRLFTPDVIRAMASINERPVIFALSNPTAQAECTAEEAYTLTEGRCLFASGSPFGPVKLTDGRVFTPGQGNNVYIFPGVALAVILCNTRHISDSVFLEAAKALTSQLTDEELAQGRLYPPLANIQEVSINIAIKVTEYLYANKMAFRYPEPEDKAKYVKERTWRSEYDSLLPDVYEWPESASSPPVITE
UniProt Q96RQ3: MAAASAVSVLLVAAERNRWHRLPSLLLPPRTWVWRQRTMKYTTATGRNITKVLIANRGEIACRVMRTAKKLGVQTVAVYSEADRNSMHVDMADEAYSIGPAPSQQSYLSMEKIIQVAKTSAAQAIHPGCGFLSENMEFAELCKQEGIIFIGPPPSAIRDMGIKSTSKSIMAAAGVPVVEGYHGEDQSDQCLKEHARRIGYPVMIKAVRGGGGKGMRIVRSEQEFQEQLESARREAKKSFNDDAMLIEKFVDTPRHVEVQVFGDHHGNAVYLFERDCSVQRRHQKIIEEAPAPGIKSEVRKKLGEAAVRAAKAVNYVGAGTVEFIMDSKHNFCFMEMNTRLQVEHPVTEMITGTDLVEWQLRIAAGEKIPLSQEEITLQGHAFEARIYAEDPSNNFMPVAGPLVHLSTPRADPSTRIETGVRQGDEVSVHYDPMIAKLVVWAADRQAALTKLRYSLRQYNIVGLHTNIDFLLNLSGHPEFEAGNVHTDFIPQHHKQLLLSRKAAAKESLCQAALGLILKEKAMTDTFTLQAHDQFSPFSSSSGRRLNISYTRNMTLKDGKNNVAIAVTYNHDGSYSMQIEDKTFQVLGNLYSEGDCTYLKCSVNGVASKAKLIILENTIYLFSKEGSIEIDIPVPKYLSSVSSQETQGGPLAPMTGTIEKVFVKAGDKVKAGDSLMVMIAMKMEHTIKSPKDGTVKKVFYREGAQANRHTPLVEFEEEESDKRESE
UniProt Q14728: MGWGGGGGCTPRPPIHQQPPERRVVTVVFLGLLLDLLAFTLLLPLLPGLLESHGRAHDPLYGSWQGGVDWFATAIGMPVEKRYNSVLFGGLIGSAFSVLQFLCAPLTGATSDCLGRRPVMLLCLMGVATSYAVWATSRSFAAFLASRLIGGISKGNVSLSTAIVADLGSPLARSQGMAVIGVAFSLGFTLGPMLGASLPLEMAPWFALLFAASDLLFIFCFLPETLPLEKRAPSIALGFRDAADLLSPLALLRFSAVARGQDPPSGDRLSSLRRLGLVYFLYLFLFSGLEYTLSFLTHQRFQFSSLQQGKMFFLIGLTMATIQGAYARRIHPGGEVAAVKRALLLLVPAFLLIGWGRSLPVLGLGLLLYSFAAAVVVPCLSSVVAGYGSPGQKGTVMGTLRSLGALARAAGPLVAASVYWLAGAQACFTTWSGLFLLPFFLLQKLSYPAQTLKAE
UniProt P40926: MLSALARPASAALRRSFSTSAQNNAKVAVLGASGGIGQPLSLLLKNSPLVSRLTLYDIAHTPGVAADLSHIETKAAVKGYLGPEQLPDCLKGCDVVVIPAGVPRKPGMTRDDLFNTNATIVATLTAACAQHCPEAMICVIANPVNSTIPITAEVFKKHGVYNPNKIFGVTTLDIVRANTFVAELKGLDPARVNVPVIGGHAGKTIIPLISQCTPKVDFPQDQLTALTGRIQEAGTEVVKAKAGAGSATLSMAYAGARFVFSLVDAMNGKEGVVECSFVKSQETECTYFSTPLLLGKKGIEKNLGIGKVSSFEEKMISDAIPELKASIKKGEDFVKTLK
UniProt P51608, whole entry, looked up: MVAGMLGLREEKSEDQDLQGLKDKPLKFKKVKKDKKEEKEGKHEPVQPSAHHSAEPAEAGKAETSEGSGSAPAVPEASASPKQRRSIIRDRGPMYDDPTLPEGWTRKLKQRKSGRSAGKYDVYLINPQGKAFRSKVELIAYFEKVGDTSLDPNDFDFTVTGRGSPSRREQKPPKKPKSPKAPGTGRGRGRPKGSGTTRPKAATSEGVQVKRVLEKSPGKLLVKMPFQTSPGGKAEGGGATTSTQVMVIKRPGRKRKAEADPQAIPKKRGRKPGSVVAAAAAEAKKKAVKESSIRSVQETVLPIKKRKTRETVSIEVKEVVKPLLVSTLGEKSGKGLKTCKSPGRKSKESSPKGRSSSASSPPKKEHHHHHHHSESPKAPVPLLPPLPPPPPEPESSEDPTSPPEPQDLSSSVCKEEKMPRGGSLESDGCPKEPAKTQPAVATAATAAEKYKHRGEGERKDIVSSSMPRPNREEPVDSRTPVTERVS
UniProt P43121, whole entry, looked up: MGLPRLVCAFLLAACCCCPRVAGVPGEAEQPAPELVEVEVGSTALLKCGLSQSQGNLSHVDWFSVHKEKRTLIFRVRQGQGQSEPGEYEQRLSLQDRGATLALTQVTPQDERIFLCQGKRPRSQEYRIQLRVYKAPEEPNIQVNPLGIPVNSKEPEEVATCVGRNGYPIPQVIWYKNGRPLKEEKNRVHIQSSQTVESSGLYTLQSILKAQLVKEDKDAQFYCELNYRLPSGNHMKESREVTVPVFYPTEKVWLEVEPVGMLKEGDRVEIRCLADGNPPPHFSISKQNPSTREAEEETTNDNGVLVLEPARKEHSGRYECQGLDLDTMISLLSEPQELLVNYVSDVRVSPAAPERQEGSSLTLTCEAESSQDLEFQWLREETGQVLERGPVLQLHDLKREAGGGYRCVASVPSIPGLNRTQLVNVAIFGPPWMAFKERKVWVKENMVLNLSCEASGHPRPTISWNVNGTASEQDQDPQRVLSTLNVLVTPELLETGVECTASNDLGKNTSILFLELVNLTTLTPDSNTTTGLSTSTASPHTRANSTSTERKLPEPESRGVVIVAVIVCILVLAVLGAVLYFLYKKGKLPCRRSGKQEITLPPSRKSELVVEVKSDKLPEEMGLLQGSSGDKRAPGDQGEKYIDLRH
UniProt Q9ULC4: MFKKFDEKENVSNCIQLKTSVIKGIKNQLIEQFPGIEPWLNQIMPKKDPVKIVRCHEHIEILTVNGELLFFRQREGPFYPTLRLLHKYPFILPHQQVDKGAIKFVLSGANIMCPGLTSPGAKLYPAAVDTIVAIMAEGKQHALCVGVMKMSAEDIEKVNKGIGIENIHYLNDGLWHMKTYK
UniProt Q9NR56: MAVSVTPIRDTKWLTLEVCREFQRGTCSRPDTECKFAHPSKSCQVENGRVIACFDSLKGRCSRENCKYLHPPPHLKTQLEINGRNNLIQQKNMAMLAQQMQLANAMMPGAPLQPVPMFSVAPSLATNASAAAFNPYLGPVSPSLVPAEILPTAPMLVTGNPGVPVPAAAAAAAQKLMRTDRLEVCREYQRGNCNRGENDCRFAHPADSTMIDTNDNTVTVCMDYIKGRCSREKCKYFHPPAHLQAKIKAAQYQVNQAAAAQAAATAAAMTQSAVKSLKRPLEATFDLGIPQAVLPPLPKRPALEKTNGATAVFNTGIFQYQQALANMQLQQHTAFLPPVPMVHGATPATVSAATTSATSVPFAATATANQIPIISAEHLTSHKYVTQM
UniProt P61244, whole entry, looked up: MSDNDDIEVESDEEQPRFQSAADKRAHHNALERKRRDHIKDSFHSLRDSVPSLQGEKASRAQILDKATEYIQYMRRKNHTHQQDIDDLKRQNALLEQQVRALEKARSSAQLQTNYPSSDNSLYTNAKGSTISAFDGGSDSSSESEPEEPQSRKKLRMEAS
UniProt Q5TF39: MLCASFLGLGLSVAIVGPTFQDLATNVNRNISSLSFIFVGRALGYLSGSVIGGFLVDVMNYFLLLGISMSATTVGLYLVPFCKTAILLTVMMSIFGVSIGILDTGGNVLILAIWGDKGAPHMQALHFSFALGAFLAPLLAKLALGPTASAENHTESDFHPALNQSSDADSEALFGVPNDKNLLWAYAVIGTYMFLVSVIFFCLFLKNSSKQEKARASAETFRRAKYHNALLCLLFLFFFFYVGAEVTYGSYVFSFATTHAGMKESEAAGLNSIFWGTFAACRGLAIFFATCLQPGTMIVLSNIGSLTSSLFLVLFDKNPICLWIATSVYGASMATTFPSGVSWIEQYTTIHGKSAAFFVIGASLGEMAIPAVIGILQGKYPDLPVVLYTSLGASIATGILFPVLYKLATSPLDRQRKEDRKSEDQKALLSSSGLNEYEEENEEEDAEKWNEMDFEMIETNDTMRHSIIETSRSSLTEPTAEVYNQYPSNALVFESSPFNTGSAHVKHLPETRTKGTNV

Key:
Test in all cases: log2 fold change, soluble protein after heating vs DMSO (PISA); higher = thermal stabilisation; K562 cells, 10 uM, 30 min; active = over 0.2 and 3.5 SD of the protein, either way, in both replicates (recomputed)
[1] = compound: C1=CC=C(C=C1)[C@H](COC2=CC3=C(C=C2)NC(=O)N3)NC(=O)C4=CC=CN(C4=O)CC5=CC(=C(C=C5)F)F
How it was run: (§1)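 K562 cells at 2×10^6 cells/mL were given 10 μM compound for 30 min. Aliquots then went through 3 min of heating across 48°C-58°C, were pooled, and were extracted in PBS with 0.5% NP-40 at 4°C, and the supernatant after 21,000xg for 90 min was quantified by TMTpro 16plex LC-MS/MS with channel sums equalised. Thermal stability relative to control samples, from duplicates, is given as log2 fold change.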

[2] = compound: CC1=C(SC2=C1C(=N[C@H](C3=NN=C(N32)C)CC(=O)N)C4=CC=C(C=C4)Cl)C
How it was run: as §1

[3] = compound: CC1=C2C(=CC=C1)N=C(N(C2=O)C3=CC=CC=C3C)CN4C=NC5=C(N=CN=C54)N
How it was run: as §1

[4] = compound: Cc1sc2c(c1C)C(c1ccc(Cl)cc1)=N[C@@H](CC(=O)OC(C)(C)C)c1nnc(C)n1-2
How it was run: as §1

[5] = compound: c1ccc([C@@H]2C[C@H]2NC2CCNCC2)cc1
How it was run: as §1

Measured: log2 fold change

MFSD5 isoform 2 (UniProt Q6N075)
inactive: [1] 0.071 | [2] 0.08 | [3] 0.112 | [4] -0.049 | [5] -0.055

MEF2C isoform 5 (UniProt Q06413)
inactive: [1] 0.051 | [2] 0.04 | [3] -0.124 | [4] 0.064 | [5] 0.154

METTL21A (UniProt Q8WXB1)
inactive: [1] -0.028 | [2] -0.009 | [3] 0.001 | [4] -0.182 | [5] 0.02

MGME1 (UniProt Q9BQP7)
inactive: [1] -0.004 | [2] 0.025 | [3] 0.008 | [4] -0.005 | [5] 0.028

MED30 (UniProt Q96HR3)
inactive: [1] 0.065 | [2] -0.017 | [3] 0.119 | [4] -0.039 | [5] -0.037

MED22 (UniProt Q15528)
inactive: [1] 0.013 | [2] 0.065 | [3] 0.013 | [4] 0.195 | [5] 0

MFSD8 (UniProt Q8NHS3)
inactive: [1] -0.134 | [2] -0.033 | [3] 0.074 | [4] -0.289 | [5] 0.119

MDP1 (UniProt Q86V88)
inactive: [1] 0.01 | [2] 0.002 | [3] -0.028 | [4] 0.049 | [5] -0.001

MAT1A (UniProt Q00266)
inactive: [1] 0.039 | [2] -0.061 | [3] -0.014 | [4] 0.029 | [5] 0.114

METTL1 (UniProt Q9UBP6)
inactive: [1] 0.038 | [2] -0.001 | [3] -0.008 | [4] -0.013 | [5] 0.021

MIA2 (UniProt Q96PC5)
inactive: [1] -0.036 | [2] 0.041 | [3] 0.02 | [4] 0.029 | [5] 0.027

MED4 (UniProt Q9NPJ6)
inactive: [1] -0.038 | [2] 0.008 | [3] 0.025 | [4] -0.071 | [5] -0.029

MCM4 (UniProt P33991)
inactive: [1] -0.029 | [2] 0.063 | [3] 0.049 | [4] -0.034 | [5] -0.07

MDH1 isoform 3 (UniProt P40925)
inactive: [1] 0.016 | [2] 0 | [3] -0.031 | [4] -0.016 | [5] -0.007

MGAT5 (UniProt Q09328)
inactive: [1] -0.04 | [2] 0.041 | [3] 0 | [4] -0.045 | [5] 0.021

MFAP1 (UniProt P55081)
inactive: [1] 0.052 | [2] -0.047 | [3] -0.024 | [4] -0.037 | [5] 0.012

MERTK (UniProt Q12866)
inactive: [1] -0.073 | [2] 0.006 | [3] -0.053 | [4] 0.039 | [5] 0.062

MED16 (UniProt Q9Y2X0)
inactive: [1] -0.048 | [2] 0.012 | [3] 0.043 | [4] 0.093 | [5] 0.019

MEMO1 (UniProt Q9Y316)
inactive: [1] -0.084 | [2] 0.046 | [3] -0.014 | [4] 0.005 | [5] -0.011

MGST2 (UniProt Q99735)
inactive: [1] -0.081 | [2] -0.294 | [3] -0.025 | [4] -0.011 | [5] 0.034

ME2 (UniProt P23368)
inactive: [1] 0.046 | [2] 0.073 | [3] 0.078 | [4] -0.086 | [5] 0.09

MED1 (UniProt Q15648)
inactive: [1] -0.033 | [2] -0.009 | [3] 0.03 | [4] 0.079 | [5] 0.058

METAP1 (UniProt P53582)
inactive: [1] -0.028 | [2] -0.031 | [3] 0.042 | [4] -0.029 | [5] 0.015

MFN1 (UniProt Q8IWA4)
inactive: [1] 0.058 | [2] 0.042 | [3] 0.05 | [4] 0.07 | [5] -0.01

MCCC1 (UniProt Q96RQ3)
inactive: [1] -0.103 | [2] 0.071 | [3] 0.033 | [4] 0.004 | [5] -0.018

MFSD10 (UniProt Q14728)
inactive: [1] 0.041 | [2] -0.05 | [3] 0.131 | [4] -0.038 | [5] 0.019

MED18 (UniProt Q9BUE0)
inactive: [1] -0.001 | [2] 0.159 | [3] 0.052 | [4] -0.018 | [5] 0.039

MFF (UniProt Q9GZY8)
inactive: [1] -0.013 | [2] 0.041 | [3] 0.064 | [4] -0.017 | [5] -0.001

MDH2 (UniProt P40926)
inactive: [1] 0.021 | [2] 0.013 | [3] -0.011 | [4] 0.006 | [5] 0.016

Looked up one by one from the entries so far, three records:
MFSD10 (UniProt Q14728)
inactive: [1] 0.041 | [2] -0.05 | [3] 0.131 | [4] -0.038 | [5] 0.019

MFF (UniProt Q9GZY8)
inactive: [1] -0.013 | [2] 0.041 | [3] 0.064 | [4] -0.017 | [5] -0.001

MFN1 (UniProt Q8IWA4)
inactive: [1] 0.058 | [2] 0.042 | [3] 0.05 | [4] 0.07 | [5] -0.01

The list goes on.

MEA1 (UniProt Q16626)
inactive: [1] 0.007 | [2] 0.064 | [3] -0.011 | [4] 0.025 | [5] 0.169

METTL18 (UniProt O95568)
inactive: [1] 0 | [2] -0.027 | [3] 0.061 | [4] -0.055 | [5] 0.028

MFN2 (UniProt O95140)
inactive: [1] 0.01 | [2] 0.038 | [3] 0.013 | [4] -0.026 | [5] 0.001

MEPCE (UniProt Q7L2J0)
inactive: [1] 0.017 | [2] 0.001 | [3] 0.064 | [4] 0.028 | [5] 0.008

MARS2 (UniProt Q96GW9)
inactive: [1] 0.035 | [2] 0.012 | [3] 0.071 | [4] -0.025 | [5] 0.054

MGAT1 (UniProt P26572)
inactive: [1] -0.029 | [2] 0.045 | [3] 0.061 | [4] 0.021 | [5] -0.025

MECP2 isoform 2 (UniProt P51608)
inactive: [1] 0.024 | [2] -0.247 | [3] -0.144 | [4] 0.223 | [5] -0.011

MCMBP (UniProt Q9BTE3)
inactive: [1] -0.061 | [2] 0.036 | [3] 0.122 | [4] -0.048 | [5] -0.08

METAP2 (UniProt P50579)
inactive: [1] 0.017 | [2] 0.044 | [3] 0.007 | [4] 0.002 | [5] 0.001

MAT2B (UniProt Q9NZL9)
inactive: [1] 0.003 | [2] 0.013 | [3] 0.106 | [4] -0.033 | [5] 0.023

MCU (UniProt Q8NE86)
inactive: [1] -0.02 | [2] 0.035 | [3] 0.038 | [4] -0.018 | [5] -0.013

MBD2 (UniProt Q9UBB5)
inactive: [1] 0.078 | [2] -0.07 | [3] 0.003 | [4] 0.209 | [5] 0.04

MCAM (UniProt P43121)
inactive: [1] -0.002 | [2] 0.014 | [3] 0.077 | [4] 0.005 | [5] 0.012

MCTS1 isoform 3 (UniProt Q9ULC4)
inactive: [1] 0.008 | [2] 0.013 | [3] 0.015 | [4] 0.021 | [5] -0.017

MED15 (UniProt Q96RN5)
inactive: [1] -0.037 | [2] 0.083 | [3] 0.093 | [4] -0.023 | [5] 0.038

METTL16 (UniProt Q86W50)
inactive: [1] 0.047 | [2] -0.038 | [3] 0.057 | [4] -0.033 | [5] 0.021

METTL3 (UniProt Q86U44)
inactive: [1] -0.015 | [2] 0.074 | [3] 0.034 | [4] -0.04 | [5] -0.024

MBNL1 (UniProt Q9NR56)
inactive: [1] -0.015 | [2] -0.063 | [3] -0.13 | [4] 0.037 | [5] 0.051

MGST1 (UniProt P10620)
inactive: [1] -0.061 | [2] 0.032 | [3] -0.11 | [4] 0.05 | [5] 0.008

MAX (UniProt P61244)
inactive: [1] 0.065 | [2] -0.023 | [3] -0.099 | [4] -0.029 | [5] 0.072

MED24 (UniProt O75448)
inactive: [1] 0.041 | [2] 0.026 | [3] 0.027 | [4] -0.016 | [5] 0.038

MGAT2 (UniProt Q10469)
inactive: [1] 0.02 | [2] 0.03 | [3] 0.087 | [4] -0.041 | [5] 0.028

MFSD4B (UniProt Q5TF39)
inactive: [1] 0.079 | [2] -0.022 | [3] -0.083 | [4] 0 | [5] -0.083

MCAT (UniProt Q8IVS2)
inactive: [1] -0.01 | [2] -0.092 | [3] 0.011 | [4] 0.039 | [5] -0.008
